Experimental data as given in PMC3197616.

System: FoxO1
Assay: EMSA
Details: 10 mM Tris-HCl pH 7.5, 1 mM MgCl2, 5 mM DTT, 40 mM KCl, 0.5% glycerol, 1 mg/mL BSA, 1% Ficoll, room temperature, 1 h, Tris-borate EDTA polyacrylamide gel, recombinant protein, protein details: His10, label: SYBR Gold stain in EMSA, 5'-FAM version also made

TTAGCTCCTGTCCCAGTCCATCACCACGGGACAAACATAGTAGAAAACCTGATCCCTTTACCCCCTTCCACCCACGGTTTGTGTAGAGCTCACAAGCAAAACAAACTTATTTTGAACACTGGGGTCCTAGCACGCTGCCCTGACAATCATTAACCTGTGCCGCACAGCCAGCCCTTCATA (double strand) [IGFBP1 promoter 180 bp amplicon (-204 to -25)]
binding result (FoxO1:DNA 1.5:1, 1:1 and 2:1 complexes, residual free DNA): binds | binding result (FoxO1:DNA 3:1, nearly complete depletion of free DNA, more 2:1 complex): binds

For at least one entry, the source does not settle the construct or the ends of the probe.
